Laboratory results published in the supplement of paper PMC11732987, “Enantioselective OTUD7B fragment discovery through chemoproteomics screening and high-throughput optimisation” (Communications Chemistry, 2025).
The list shows a part of the results. The data scatter; read single values as rough.

Chains of the proteins cited; added tags and fusions are not shown. Lines headed by an entry give the natural chain unless they say otherwise; changes in a name come on top. Residues count along the entry.
UniProt Q96KM6: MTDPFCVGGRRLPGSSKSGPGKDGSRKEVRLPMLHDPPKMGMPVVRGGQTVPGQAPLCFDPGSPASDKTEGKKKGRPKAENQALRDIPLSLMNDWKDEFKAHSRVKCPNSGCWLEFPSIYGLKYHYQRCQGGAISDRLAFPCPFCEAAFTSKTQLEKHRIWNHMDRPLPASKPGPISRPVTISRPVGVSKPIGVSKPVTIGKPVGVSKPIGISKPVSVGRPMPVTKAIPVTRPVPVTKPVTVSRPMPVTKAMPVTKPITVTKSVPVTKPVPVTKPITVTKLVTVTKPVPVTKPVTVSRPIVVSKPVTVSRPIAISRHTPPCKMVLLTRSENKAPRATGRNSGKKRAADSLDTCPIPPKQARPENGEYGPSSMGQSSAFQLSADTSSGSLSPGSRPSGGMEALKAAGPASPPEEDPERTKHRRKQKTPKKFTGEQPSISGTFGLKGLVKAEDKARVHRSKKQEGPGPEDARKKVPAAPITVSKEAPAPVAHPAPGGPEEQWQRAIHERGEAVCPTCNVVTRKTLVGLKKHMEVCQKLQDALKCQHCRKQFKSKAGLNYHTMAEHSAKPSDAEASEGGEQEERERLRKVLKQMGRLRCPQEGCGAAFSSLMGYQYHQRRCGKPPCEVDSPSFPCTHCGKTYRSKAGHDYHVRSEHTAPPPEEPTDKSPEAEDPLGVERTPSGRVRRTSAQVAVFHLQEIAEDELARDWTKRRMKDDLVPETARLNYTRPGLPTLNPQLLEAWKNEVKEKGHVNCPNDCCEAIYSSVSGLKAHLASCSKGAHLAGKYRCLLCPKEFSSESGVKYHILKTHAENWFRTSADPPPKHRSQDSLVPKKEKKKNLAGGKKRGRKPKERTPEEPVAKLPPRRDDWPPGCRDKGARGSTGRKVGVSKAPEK
UniProt Q8N1G0: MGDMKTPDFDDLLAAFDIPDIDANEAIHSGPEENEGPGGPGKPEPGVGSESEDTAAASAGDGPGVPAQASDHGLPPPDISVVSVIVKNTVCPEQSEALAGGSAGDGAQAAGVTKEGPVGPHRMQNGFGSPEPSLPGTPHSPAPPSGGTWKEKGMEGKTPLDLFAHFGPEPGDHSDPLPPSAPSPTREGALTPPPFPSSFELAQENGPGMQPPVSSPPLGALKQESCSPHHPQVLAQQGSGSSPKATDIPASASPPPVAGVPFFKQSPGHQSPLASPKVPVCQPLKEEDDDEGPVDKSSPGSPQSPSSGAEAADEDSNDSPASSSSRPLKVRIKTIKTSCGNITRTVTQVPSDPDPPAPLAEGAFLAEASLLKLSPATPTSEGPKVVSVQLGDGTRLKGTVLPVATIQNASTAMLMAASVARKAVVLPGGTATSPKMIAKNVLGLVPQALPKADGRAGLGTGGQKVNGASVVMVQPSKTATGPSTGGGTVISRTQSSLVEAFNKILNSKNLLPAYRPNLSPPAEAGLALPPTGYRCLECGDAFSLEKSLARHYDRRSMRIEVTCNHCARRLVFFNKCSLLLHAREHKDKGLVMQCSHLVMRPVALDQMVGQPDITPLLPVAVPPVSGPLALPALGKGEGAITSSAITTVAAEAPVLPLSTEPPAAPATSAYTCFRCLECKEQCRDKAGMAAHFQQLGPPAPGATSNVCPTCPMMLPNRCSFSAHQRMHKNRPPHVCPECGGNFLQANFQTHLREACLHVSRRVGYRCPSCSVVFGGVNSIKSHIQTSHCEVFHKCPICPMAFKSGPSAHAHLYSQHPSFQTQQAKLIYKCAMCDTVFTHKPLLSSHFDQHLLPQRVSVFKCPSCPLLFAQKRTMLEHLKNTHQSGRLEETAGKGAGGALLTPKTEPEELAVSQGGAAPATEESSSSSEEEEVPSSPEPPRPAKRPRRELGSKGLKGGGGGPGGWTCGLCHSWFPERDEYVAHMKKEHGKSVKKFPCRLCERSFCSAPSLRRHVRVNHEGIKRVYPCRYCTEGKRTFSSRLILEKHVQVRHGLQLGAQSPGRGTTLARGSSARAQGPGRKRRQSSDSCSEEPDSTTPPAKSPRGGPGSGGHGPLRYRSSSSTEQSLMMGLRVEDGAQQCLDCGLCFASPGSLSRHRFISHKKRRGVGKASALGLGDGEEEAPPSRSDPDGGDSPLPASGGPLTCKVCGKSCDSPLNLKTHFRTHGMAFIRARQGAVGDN
UniProt O60281: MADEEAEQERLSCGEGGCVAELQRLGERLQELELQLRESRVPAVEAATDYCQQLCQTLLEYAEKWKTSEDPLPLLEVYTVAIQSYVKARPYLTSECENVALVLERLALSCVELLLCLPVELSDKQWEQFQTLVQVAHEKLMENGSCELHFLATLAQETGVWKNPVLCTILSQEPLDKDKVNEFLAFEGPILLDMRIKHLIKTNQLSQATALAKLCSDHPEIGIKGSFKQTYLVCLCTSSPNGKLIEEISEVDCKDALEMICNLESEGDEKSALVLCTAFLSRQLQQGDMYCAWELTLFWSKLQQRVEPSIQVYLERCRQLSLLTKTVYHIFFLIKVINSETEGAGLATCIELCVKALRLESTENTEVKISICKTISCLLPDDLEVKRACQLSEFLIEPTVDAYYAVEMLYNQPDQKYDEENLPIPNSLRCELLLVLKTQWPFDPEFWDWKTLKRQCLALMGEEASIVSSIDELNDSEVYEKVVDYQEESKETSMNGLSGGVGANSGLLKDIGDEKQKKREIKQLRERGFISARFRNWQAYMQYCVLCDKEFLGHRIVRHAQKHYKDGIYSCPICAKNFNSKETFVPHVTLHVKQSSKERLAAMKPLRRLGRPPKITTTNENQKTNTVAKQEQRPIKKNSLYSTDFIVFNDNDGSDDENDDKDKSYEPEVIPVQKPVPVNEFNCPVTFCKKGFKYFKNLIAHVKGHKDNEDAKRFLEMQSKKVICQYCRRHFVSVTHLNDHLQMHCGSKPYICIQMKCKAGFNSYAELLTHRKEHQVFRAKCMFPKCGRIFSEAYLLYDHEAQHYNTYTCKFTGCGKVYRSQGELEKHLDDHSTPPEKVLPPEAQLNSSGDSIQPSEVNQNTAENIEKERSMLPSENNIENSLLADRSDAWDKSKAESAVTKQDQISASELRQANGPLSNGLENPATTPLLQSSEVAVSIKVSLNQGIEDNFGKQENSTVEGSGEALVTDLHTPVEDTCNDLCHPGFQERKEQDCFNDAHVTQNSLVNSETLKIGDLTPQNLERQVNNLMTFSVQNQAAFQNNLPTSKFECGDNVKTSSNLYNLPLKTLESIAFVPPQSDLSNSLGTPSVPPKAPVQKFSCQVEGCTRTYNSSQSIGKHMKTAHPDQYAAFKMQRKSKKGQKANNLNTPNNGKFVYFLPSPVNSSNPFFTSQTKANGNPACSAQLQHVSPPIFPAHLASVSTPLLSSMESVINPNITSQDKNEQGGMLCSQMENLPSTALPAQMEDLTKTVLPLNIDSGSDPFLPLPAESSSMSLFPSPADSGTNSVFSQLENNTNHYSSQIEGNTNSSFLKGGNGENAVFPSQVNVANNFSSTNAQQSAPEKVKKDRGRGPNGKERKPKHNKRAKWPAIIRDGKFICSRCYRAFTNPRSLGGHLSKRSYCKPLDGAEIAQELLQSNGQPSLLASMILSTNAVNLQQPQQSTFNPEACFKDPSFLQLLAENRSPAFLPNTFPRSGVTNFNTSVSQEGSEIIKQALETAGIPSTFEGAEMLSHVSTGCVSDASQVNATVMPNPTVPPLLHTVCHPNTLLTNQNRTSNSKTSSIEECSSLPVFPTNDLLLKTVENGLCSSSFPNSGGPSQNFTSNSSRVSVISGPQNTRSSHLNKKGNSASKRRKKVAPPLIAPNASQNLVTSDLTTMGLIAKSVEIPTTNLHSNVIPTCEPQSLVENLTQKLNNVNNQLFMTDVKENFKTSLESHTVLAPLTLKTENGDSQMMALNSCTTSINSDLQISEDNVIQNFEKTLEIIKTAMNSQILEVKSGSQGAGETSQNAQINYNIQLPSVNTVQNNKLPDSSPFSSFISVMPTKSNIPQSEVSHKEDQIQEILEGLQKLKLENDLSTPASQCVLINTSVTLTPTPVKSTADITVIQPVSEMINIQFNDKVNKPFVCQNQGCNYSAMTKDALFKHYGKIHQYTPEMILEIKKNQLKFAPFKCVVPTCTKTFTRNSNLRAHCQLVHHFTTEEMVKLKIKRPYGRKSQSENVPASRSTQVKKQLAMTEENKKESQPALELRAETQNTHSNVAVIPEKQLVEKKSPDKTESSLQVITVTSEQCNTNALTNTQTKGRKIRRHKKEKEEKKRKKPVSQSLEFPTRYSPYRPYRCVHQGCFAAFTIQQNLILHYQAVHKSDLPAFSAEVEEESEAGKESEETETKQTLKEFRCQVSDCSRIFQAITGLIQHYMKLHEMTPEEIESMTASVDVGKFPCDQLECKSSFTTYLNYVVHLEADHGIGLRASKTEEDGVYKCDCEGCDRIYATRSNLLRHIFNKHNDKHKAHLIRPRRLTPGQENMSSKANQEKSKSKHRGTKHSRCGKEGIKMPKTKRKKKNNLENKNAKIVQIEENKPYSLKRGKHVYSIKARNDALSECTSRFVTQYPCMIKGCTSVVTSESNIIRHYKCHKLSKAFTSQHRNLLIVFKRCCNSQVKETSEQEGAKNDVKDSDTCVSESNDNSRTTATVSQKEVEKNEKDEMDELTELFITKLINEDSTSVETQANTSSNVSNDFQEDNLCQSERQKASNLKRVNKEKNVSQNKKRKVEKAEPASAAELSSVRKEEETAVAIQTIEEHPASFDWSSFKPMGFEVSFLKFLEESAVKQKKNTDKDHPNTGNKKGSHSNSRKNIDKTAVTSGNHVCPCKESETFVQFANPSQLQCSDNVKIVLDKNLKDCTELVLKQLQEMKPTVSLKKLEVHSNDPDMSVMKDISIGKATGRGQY
UniProt O95159: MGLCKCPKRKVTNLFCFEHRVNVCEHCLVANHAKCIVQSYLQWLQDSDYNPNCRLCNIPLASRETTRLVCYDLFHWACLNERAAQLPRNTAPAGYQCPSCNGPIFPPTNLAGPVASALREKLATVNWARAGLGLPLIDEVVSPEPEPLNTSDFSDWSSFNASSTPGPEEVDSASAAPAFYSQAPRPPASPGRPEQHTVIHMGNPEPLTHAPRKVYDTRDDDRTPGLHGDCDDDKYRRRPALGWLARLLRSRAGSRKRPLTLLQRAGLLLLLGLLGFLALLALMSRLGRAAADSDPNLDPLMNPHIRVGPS
UniProt O76080: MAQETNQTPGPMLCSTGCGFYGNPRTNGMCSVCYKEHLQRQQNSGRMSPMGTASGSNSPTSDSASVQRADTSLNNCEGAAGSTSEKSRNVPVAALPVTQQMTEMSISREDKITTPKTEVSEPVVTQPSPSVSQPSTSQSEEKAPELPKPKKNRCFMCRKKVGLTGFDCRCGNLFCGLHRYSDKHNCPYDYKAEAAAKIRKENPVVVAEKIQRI
UniProt Q16600, 120-144: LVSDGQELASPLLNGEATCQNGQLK
UniProt O75362: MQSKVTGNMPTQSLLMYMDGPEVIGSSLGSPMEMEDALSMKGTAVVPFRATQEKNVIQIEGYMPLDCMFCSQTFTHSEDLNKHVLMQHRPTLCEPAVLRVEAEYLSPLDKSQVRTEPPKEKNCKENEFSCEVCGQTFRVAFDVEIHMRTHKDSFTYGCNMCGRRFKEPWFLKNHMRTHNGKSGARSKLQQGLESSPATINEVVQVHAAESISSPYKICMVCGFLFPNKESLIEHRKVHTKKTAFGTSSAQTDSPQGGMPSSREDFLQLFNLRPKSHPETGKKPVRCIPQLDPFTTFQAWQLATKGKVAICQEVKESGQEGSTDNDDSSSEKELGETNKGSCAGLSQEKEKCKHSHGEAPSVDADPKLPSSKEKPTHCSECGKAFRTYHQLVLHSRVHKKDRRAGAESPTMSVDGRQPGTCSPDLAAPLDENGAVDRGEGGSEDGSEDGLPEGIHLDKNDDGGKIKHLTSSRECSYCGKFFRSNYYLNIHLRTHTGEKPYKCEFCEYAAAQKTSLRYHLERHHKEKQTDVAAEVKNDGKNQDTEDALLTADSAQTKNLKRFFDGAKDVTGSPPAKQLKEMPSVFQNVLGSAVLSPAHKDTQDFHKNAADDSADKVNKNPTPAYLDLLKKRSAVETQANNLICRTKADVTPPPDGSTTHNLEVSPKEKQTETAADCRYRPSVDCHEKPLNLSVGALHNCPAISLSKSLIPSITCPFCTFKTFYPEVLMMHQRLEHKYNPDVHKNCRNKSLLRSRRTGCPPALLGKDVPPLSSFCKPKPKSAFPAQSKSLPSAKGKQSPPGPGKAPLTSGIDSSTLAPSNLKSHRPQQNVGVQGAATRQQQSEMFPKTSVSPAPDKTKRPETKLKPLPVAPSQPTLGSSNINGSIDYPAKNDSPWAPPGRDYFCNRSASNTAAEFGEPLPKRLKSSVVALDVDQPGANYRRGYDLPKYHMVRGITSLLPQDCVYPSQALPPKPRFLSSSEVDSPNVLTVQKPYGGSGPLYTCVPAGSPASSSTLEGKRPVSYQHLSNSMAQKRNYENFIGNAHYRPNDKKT

Compound: ClCC(=O)N[C@@H]1CCCc2ccccc12
Test: log2 mean competition ratio of IA-DTB cysteine labelling (DMSO/compound) (log2 ratio); higher = stronger cysteine engagement by compound
Conditions: treatment time: 4 h, cell line lysate: HEK293T
Method: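 IA-DTB competitive cysteine chemoproteomics in HEK293T RIPA lysate. Lysates were treated with compound 29 or 30 at 50 or 200 µM for 4 h, then IA-DTB (500 µM, 1 h), trypsin-digested, NeutrAvidin-enriched and analysed by diaPASEF. Competition ratio = intensity DMSO / intensity compound (n=4 treated, n=64 DMSO); binding: mean log2 CR ≥ 1 and p ≤ 0.05 plus QC filters. Target is the cysteine site.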

## ZNF791 C311
50 µM
  log2 mean competition ratio: -0.0879

## ZNF516 C875 (UniProt Q92618)
50 µM
  log2 mean competition ratio: 0.126
200 µM
  log2 mean competition ratio: 0.107

## ZC3H7B C138 (UniProt Q9UGR2)
50 µM
  log2 mean competition ratio: -0.312
200 µM
  log2 mean competition ratio: -0.00641

## ZKSCAN2 C109
50 µM
  log2 mean competition ratio: -0.647
200 µM
  log2 mean competition ratio: -0.141

## ZNF512B C533 (UniProt Q96KM6)
50 µM
  log2 mean competition ratio: -0.273
200 µM
  log2 mean competition ratio: -0.255

## ZNF687 C755 (UniProt Q8N1G0)
50 µM
  log2 mean competition ratio: 0.521
200 µM
  log2 mean competition ratio: -0.275

## ZNF644 C62 (UniProt Q9H582)
50 µM
  log2 mean competition ratio: -0.0603
200 µM
  log2 mean competition ratio: -0.135

## ZC3HC1 C5 (UniProt Q86WB0)
50 µM
  log2 mean competition ratio: -0.215
200 µM
  log2 mean competition ratio: -0.192

## ZEB2 C140 (UniProt O60315)
50 µM
  log2 mean competition ratio: -0.0652
200 µM
  log2 mean competition ratio: -0.284

## ZC3H7A C98 (UniProt Q8IWR0)
50 µM
  log2 mean competition ratio: 0.685
200 µM
  log2 mean competition ratio: 0.44

## ZCCHC17 C52 (UniProt Q9NP64)
50 µM
  log2 mean competition ratio: 0.223
200 µM
  log2 mean competition ratio: 0.302

## ZNF428 C111
50 µM
  log2 mean competition ratio: -0.103
200 µM
  log2 mean competition ratio: -0.0217

## ZNF292 C215 (UniProt O60281)
50 µM
  log2 mean competition ratio: -0.19
200 µM
  log2 mean competition ratio: 0.0716

## ZFPL1 C230 (UniProt O95159)
50 µM
  log2 mean competition ratio: -0.122
200 µM
  log2 mean competition ratio: -0.000237

## ZFAND5 C76 (UniProt O76080)
50 µM
  log2 mean competition ratio: -0.106
200 µM
  log2 mean competition ratio: -0.0589

## ZNF687 C339 (UniProt Q8N1G0)
50 µM
  log2 mean competition ratio: -0.0127
200 µM
  log2 mean competition ratio: 0.0091

## ZNF669 C378 (UniProt Q96BR6)
50 µM
  log2 mean competition ratio: -0.406
200 µM
  log2 mean competition ratio: -0.198

## ZMYM4 C1232 (UniProt Q5VZL5)
50 µM
  log2 mean competition ratio: 0.0258
200 µM
  log2 mean competition ratio: 0.138

## ZNF709 C431(C571)
50 µM
  log2 mean competition ratio: 0.205
200 µM
  log2 mean competition ratio: 0.497

## ZYX C387 (UniProt Q15942)
50 µM
  log2 mean competition ratio: 0.301
200 µM
  log2 mean competition ratio: -0.405

## ZNF239 C138 (UniProt Q16600)
50 µM
  log2 mean competition ratio: -0.393

## ZNF217 C641 (UniProt O75362)
50 µM
  log2 mean competition ratio: -0.0595
200 µM
  log2 mean competition ratio: 0.17

## ZNF512B C129 (UniProt Q96KM6)
50 µM
  log2 mean competition ratio: -0.245
200 µM
  log2 mean competition ratio: -0.0977
